Data: patent US20070049538A1, “METHODS FOR USING CUCURBITACIN COMPOUNDS” (SOUTH DAKOTA STATE UNIVERSITY, priority 2005, published 2007)

Tests used:
HepG2 cells = details: ratio of IC50 and EC50, HepG2
Text: Experimental conditions were standardized on silybin. […]
The ratio of IC50-to-EC50 (hereafter T/A) is also indicated in this table, which gives the margin between toxic and cytoprotective concentrations.

HSC-T6 cells = assay: Serum-driven HSC-T6 proliferation, experiment 3 (24 h, proliferating cells); assay type: cell-based, rat; details: HSC-T6 experiment 3
Procedure: To overcome this problem, the amount of incubation time was increased to 24 h, and cucurbitacin activity measured on starved (Exp. 2) or proliferative (Exp. 3) cells (Table 8). Cells turned quiescent when serum was not supplemented for one day (Exp. 2). Activity of a few compounds was monitored on quiescent cells, and their activity compared to the ones measured on proliferating cells (Exp. 3).
We established several experimental conditions such as 4 hours of incubation time with cucurbitacin, and 2 day cell incubation with fresh media after challenging with cucurbitacin (Exp. 1). Other experiments involved addition of cucurbitacin for 24 hours over starved cells (Exp. 2) vs. proliferating cells (Exp. 3), and one day incubation of cells with fresh media after challenge. The 4 hour incubation period with cucurbitacin triggered anti-proliferation effect. This effect, however, was hindered by a second cycle of cell proliferation during the two-day cell growth period (see silybin, E and I glucosides, and for I-nPr). […] Because of that, the challenge time was increased to 24 hours (Exp. 2 and 3).
In experiment 3, only 40% of the cells divided. The ratio of EC50 values for exp. 2 and exp. 3 varied between 3.6 and 12.7. This may indicate differential cytotoxicity of silybin and cucurbitacin analogs over quiescent and active stellate cells. In other words, compounds show higher anti-proliferative activity on active cells than on quiescent cells.

[1] = toxic over antiproliferation concentration (IC50/EC50)

Row | Compound | T/A (HepG2 cells) | T/A (HSC-T6 cells; [1]) | T/A (HSC-T6 cells)
1 | CC(C)(O)/C=C/C(=O)[C@](C)(O)[C@H]1[C@H](O)C[C@@]2(C)[C@@H]3CC=C4[C@@H](C[C@H](O)C(=O)C4(C)C)[C@]3(C)C(=O)C[C@]12C [D, cucurbitacin D] | 8.6 | 344 | 
2 | Cucurbitacin E-Me ether |  | 33 | Medium to high
3 | CC(C)(O)/C=C/C(=O)[C@](C)(O)[C@H]1[C@H](O)C[C@@]2(C)[C@@H]3CC=C4[C@@H](C=C(O)C(=O)C4(C)C)[C@]3(C)C(=O)C[C@]12C [I, cucurbitacin I] | 5.0 | 150 | 
4 | COC1=CC2C(=CCC3C2(C)C(=O)CC2(C)C(C(C)(O)C(=O)C=CC(C)(C)O)C(O)CC32C)C(C)(C)C1=O (stereo not shown) [I-Me] | 2.9 | 62 | Medium to high
5 | CC(C)OC1=CC2C(=CCC3C2(C)C(=O)CC2(C)C(C(C)(O)C(=O)C=CC(C)(C)O)C(O)CC32C)C(C)(C)C1=O (stereo not shown) [I-iPr] |  | 9 | 
6 | CC(=O)OC(C)(C)/C=C/C(=O)[C@](C)(O)[C@H]1[C@H](O)C[C@@]2(C)[C@@H]3CC=C4[C@@H](C=C(O[C@@H]5O[C@H](CO)[C@@H](O)[C@H](O)[C@H]5O)C(=O)C4(C)C)[C@]3(C)C(=O)C[C@]12C [E-Gluc, cucurbitacin E glucoside] | 5.0 | 29 | Medium to high
7 | CCOC1=CC2C(=CCC3C2(C)C(=O)CC2(C)C(C(C)(O)C(=O)C=CC(C)(C)OC(C)=O)C(O)CC32C)C(C)(C)C1=O (stereo not shown) [E-Et] |  | 13 | 
8 | CCCOC1=CC2C(=CCC3C2(C)C(=O)CC2(C)C(C(C)(O)C(=O)C=CC(C)(C)O)C(O)CC32C)C(C)(C)C1=O (stereo not shown) [I-nPr] |  | 8 | 
9 | CC(=O)OC(C)(C)C=CC(=O)C(C)(O)C1C(O)CC2(C)C3CC=C4C(C=C(OC(C)C)C(=O)C4(C)C)C3(C)C(=O)CC12C (stereo not shown) [E-iPr] |  | 8 | 
10 | CC(C)(O)/C=C/C(=O)[C@](C)(O)C1[C@H](O)C[C@@]2(C)C3CC=C4C(C=C(O[C@@H]5O[C@H](CO)[C@@H](O)[C@H](O)[C@H]5O)C(=O)C4(C)C)[C@]3(C)C(=O)C[C@]12C (stereo partly shown) [I-Gluc, cucurbitacin I glucoside] |  | 64 | Medium to high
11 | CC(C)(O)/C=C/C(=O)C(C)(O)C1C(O)CC2(C)C3CC=C4C(CC(=O)C(O)C4(C)C)C3(C)C(=O)CC12C (stereo not shown) [iso-D] | 5.8 | 139 | 
12 | CC(=O)OC(C)(C)/C=C/C(=O)[C@](C)(O)[C@H]1[C@H](O)C[C@@]2(C)[C@@H]3CC=C4[C@H](C[C@H](O)C(=O)C4(C)C)[C@]3(C)C(=O)C[C@]12C [B, cucurbitacin B] | 2.6 | 180 | 
